In the odorant receptor screen of Mainland et al. (2015):
“And” between values parts separate entries of the source, which are not always exact repeats. Identical values can stand only once. Some of the results follow. Single wells; the ratio to wells without odorant was worked out here, and repeats agree poorly.

system: OR6C1 V74I/C130Y/L161F/H165D/V246I/R291K clone 1442; test: odorant receptor activation (CRE luciferase / Renilla) (fold of no-odor wells); higher = more activation; conditions: 100 µM

Structure (SMILES)	odorant receptor activation
COC(=O)c1ccccc1 [methyl benzoate]	0.683
CCCCCOC(C)=O [n-amyl acetate]	0.746
CC1COCc2cc3c(cc21)C(C)(C)C(C)C3(C)C (stereo unspecified) [galaxolide]	2.62
C=CCc1ccc(OC(C)=O)c(OC)c1 [eugenol acetate]	1.47
CC12CCC(CC1)C(C)(C)O2 [cineole]	0.128
CCCC(=O)O [butyric acid]	0.163
CCCCCC(C)=O [2-heptanone]	0.933
CC(C)(C)c1ccc(CCC=O)cc1 [bourgeonal]	0.132
CC(=O)OC1CC2CCC1(C)C2(C)C (stereo unspecified) [isobornyl acetate]	0.981
CCCCO [1-butanol]	1.15
CC(=O)c1ccccc1 [acetophenone]	1.14
COc1ccccc1O [guaiacol]	0.872
O=CCc1ccccc1 [phenyl acetaldehyde]	1.49
CC12C=CCC1C1CCC3CC(=O)CCC3(C)C1CC2 (stereo unspecified) [androstenone]	1.01
C=C(C)C1CC=C(C)C(=O)C1 (stereo unspecified) [r-carvone]	1.03
CCCCCCC=O [heptaldehyde]	1.06 and 0.671
C=C(C)C1CC=CCC1 (stereo unspecified) [r-limonene]	1.29 and 1.04
COC(=O)c1ccccc1O [methyl salicylate]	1.33
CCCCCCCCOC(C)=O [octyl acetate]	1.23
CCC1(O)C2(C)CCC(C2)C1(C)C (stereo unspecified) [2-ethylfenchol]	5.84
CC(C)=CCCC(C)=CC=O [citral]	0.152
CC1=NC(C)SC1C (stereo unspecified)	1.1
CC12C=CCC1C1CCC3=CC(=O)CCC3(C)C1CC2 (stereo unspecified) [androstadienone]	1.05
O=C1CCCCCCCCCCCC(=O)OCCO1 [ethylene brassylate]	1.65
CCCCCC(=O)O [caproic acid]	0.131
O=C1CCCCC1 [Cyclohexanone]	0.989
CC(C)CC(=O)O [isovaleric acid]	0.9

system: OR6C2 clone 1413; test: as above; conditions: 100 µM

Structure (SMILES)	odorant receptor activation
COC(=O)c1ccccc1 [methyl benzoate]	0.753
CCCCCOC(C)=O [n-amyl acetate]	0.835
CC1COCc2cc3c(cc21)C(C)(C)C(C)C3(C)C (stereo unspecified) [galaxolide]	4.44
C=CCc1ccc(OC(C)=O)c(OC)c1 [eugenol acetate]	1.7
CC12CCC(CC1)C(C)(C)O2 [cineole]	0.201
CCCC(=O)O [butyric acid]	0.216
CCCCCC(C)=O [2-heptanone]	0.985
CC(C)(C)c1ccc(CCC=O)cc1 [bourgeonal]	0.191
CC(=O)OC1CC2CCC1(C)C2(C)C (stereo unspecified) [isobornyl acetate]	0.771
CCCCO [1-butanol]	1.17
CC(=O)c1ccccc1 [acetophenone]	0.8
COc1ccccc1O [guaiacol]	0.784
O=CCc1ccccc1 [phenyl acetaldehyde]	1.43
CC12C=CCC1C1CCC3CC(=O)CCC3(C)C1CC2 (stereo unspecified) [androstenone]	1.08
C=C(C)C1CC=C(C)C(=O)C1 (stereo unspecified) [r-carvone]	1.35
CCCCCCC=O [heptaldehyde]	0.961 and 0.812
C=C(C)C1CC=CCC1 (stereo unspecified) [r-limonene]	1.17 and 0.968
COC(=O)c1ccccc1O [methyl salicylate]	1.34
CCCCCCCCOC(C)=O [octyl acetate]	0.858
CCC1(O)C2(C)CCC(C2)C1(C)C (stereo unspecified) [2-ethylfenchol]	0.924
CC(C)=CCCC(C)=CC=O [citral]	0.257
CC1=NC(C)SC1C (stereo unspecified)	1.24
CC12C=CCC1C1CCC3=CC(=O)CCC3(C)C1CC2 (stereo unspecified) [androstadienone]	0.875
O=C1CCCCCCCCCCCC(=O)OCCO1 [ethylene brassylate]	1.38
CCCCCC(=O)O [caproic acid]	0.193
O=C1CCCCC1 [Cyclohexanone]	0.917
CC(C)CC(=O)O [isovaleric acid]	0.738

system: OR6C3 clone 1424; test: as above; conditions: 100 µM

Structure (SMILES)	odorant receptor activation
COC(=O)c1ccccc1 [methyl benzoate]	0.881
CCCCCOC(C)=O [n-amyl acetate]	0.741
CC1COCc2cc3c(cc21)C(C)(C)C(C)C3(C)C (stereo unspecified) [galaxolide]	3.49
C=CCc1ccc(OC(C)=O)c(OC)c1 [eugenol acetate]	2.08
CC12CCC(CC1)C(C)(C)O2 [cineole]	0.114
CCCC(=O)O [butyric acid]	0.163
CCCCCC(C)=O [2-heptanone]	1.09
CC(C)(C)c1ccc(CCC=O)cc1 [bourgeonal]	0.171
CC(=O)OC1CC2CCC1(C)C2(C)C (stereo unspecified) [isobornyl acetate]	0.761
CCCCO [1-butanol]	0.693
CC(=O)c1ccccc1 [acetophenone]	0.884
COc1ccccc1O [guaiacol]	0.821
O=CCc1ccccc1 [phenyl acetaldehyde]	1.48
CC12C=CCC1C1CCC3CC(=O)CCC3(C)C1CC2 (stereo unspecified) [androstenone]	0.762
C=C(C)C1CC=C(C)C(=O)C1 (stereo unspecified) [r-carvone]	1.28
CCCCCCC=O [heptaldehyde]	0.968 and 0.717
C=C(C)C1CC=CCC1 (stereo unspecified) [r-limonene]	1.27 and 0.9
COC(=O)c1ccccc1O [methyl salicylate]	0.961
CCCCCCCCOC(C)=O [octyl acetate]	0.915
CCC1(O)C2(C)CCC(C2)C1(C)C (stereo unspecified) [2-ethylfenchol]	0.675
CC(C)=CCCC(C)=CC=O [citral]	0.196
CC1=NC(C)SC1C (stereo unspecified)	1.01
CC12C=CCC1C1CCC3=CC(=O)CCC3(C)C1CC2 (stereo unspecified) [androstadienone]	0.986
O=C1CCCCCCCCCCCC(=O)OCCO1 [ethylene brassylate]	1.53
CCCCCC(=O)O [caproic acid]	0.158
O=C1CCCCC1 [Cyclohexanone]	0.873
CC(C)CC(=O)O [isovaleric acid]	0.659
